Data on three molecules can be found in publication PMC11173422, “Substitution-Induced Mechanistic Switching in SNAr-Warheads for Cysteine Proteases” (Molecules, 2024).

This data set is described as follows: Inner-filter effect: attenuation of free AMC fluorescence. The note with it: for attenuation of fluorescence signal: inhibitor 10 µM, 10 µM AMC in assay buffer.

Turning to `CC(C)C[C@H](NC(=O)[C@H](Cc1ccccc1)Nc1cc(F)c([N+](=O)[O-])cc1[N+](=O)[O-])C(=O)O` [Compound 3], the “attenuation of fluorescence signal” value was 11%.

As for “N-(5-fluoro-2,4-dinitrobenzoyl)-L-phenylalanyl-L-leucine [Compound 9]”, the fluorescence interference is recorded as 8% (inhibitor 500 µM) and 23% (inhibitor 1000 µM). For `CC(C)C[C@H](NC(=O)[C@H](Cc1ccccc1)Nc1ccc([N+](=O)[O-])c([N+](=O)[O-])c1)C(=O)O` [Compound 2], the “attenuation of fluorescence signal” value is 14%.
